Results as given in paper PMC12204631.
Results are given in words; binding and its absence hold for the method and conditions named. Binding seen in cells or lysates may run through a third protein. A yes stands for co-enrichment or nearness to the bait. Other partners may have been found. Tags and fused reporters may be left off the sequences shown.

T1: 6HIS-HA-JHD2 (S. cerevisiae) (UniProt P47156)
T1 sequence: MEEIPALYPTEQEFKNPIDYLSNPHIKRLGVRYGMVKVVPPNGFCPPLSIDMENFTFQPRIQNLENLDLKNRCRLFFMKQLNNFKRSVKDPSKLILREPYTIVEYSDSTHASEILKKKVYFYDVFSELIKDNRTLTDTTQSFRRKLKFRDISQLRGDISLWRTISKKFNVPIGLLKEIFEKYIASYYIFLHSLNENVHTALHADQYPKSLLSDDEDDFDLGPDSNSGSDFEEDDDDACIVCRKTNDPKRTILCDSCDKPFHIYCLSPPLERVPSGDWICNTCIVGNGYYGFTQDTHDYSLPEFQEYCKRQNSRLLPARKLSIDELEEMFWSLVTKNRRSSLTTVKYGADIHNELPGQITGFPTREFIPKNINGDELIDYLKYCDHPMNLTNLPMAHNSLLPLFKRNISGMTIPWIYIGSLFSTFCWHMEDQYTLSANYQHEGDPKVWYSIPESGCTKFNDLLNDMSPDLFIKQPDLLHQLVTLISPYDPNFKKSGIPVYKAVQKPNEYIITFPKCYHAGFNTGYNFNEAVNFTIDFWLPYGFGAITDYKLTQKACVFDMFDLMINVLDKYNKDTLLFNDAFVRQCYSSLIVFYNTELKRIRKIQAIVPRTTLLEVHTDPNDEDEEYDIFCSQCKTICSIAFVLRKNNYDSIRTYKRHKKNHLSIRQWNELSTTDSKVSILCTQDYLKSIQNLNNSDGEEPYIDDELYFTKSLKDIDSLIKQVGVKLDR


Target: T1, 6HIS-HA-JHD2 (S. cerevisiae)
Assay: affinity purification with mass spectrometry; whole cell extracts of a wild-type strain with 6HIS-HA-JHD2 induced from the GAL1 promoter for 6 hours; Ni-NTA agarose and anti-HA agarose beads at 4°C for 24 hours; proteins found with the empty vector strain excluded

Binder	binding
MTQ2 (protein, UniProt Q03920 1-221) MLPTPYVKCDYDKVYEPAEDSFLILDCLEKEHDFLKQKFGNRLAIVCEIGSGSGIVTTFLMQNKIIPQENSIHLAVDINPWALEATLDTAKLNSCKSSFLEVIQADLNSSIRNNQVDVLIFNPPYVPAECVPDVPGSREEADQWLDLALLGGKDGMAITDKLLRQLEQILSPDGVAYILFCARNKPKEVIKRFVDTYKWNVKLIETRKAGWEVLSVYSFTR	binds
EFM1 (protein, UniProt P38732 1-585) MITQTELDNCLQWAQNNGAFIDPKISFRITEDAGVSAFVNEKFSPKPDQALIRVPETLLITSQQALSEFSQAANERSLLNSVTQLYLSKLKFGTDAVHLKSFYKPYLDVLPLHLPQPYFWSTDEVMNLHGTDVYLTMRDTLNKLVKEWRMLFQALSIEHSSQDKQFLSLFQENKDSAVVPLEQFCAHINGCKLEDSEWNSFVAYLWSYCIFNSRAFPRVILGRAGTDRTNLNEGFLYPIVDLLNHKNDVPVRWEMNEQNELCFMSQTTTFSAQDELFNNYGNISNEKCLLNYGFWDSSNKFDFSRLTLKLPSTLVSGLPVDFNKSGNFVTDDGETTILQFSLKISEPLPPVLLALFAYLSKLKSEETPTVRSVLEGIDQLTSVVSQRLLFYKNFKIKTSSTQKLRPHVIKLIKLYYQDNKKILNATTEKLSVLQKKIYSNNKEFSLSFKTIFKNDKIFANSLLLVFGAINYEDLITKDCLNDALLLWIVKLINDKSNNQGGFIKQTFKEVSDSIVIEKEDVMEFLPFYKKYFPNLSERIPEIYSVGDWGIRQFIVADTAIDRLVWIRKSNKEPIFLMKKAYDLQI	binds
RKM3 (protein, UniProt P38222 1-552) MSVTFKDDVHRILKFVANCNGRFEDSKCDIRESPLGGLGVFAKTDIAEGESILTLNKSSIFSASNSSIANLLCDSSIDGMLALNIAFIYETTVFRNSSHWYPFLRTIRIRDDEGHLNLPPSFWHADAKRLLKGTSFDTLFDSLAPEEEIMEGFEIAVDLAHKWNDEFGLEIPKGFLDVSEENHEEDYNLKLEKFISVAYTLSSRGFEIDAYHETALVPIADLFNHHVSDPDLKFVSLYDVCDKCGEPDMCKHLIAEEYLEAENLDKNMPKVASMETRVIDEDLIKSLENDLEKEYSNVTANIEDDDGGIENPDECVDLVLKNDVAQGQEIFNSYGELSNVFLLARYGFTVPENQYDIVHLGPDFMKILKKEEKYQEKVKWWSQVGHGLFSAWYAQMRQEDEEDEDGQAKSDNLSDDIESEEEEEEEEGDDSLESWLSQLYIDSSGEPSPSTWALANLLTLTAVQWESLFSKKATPHISDSIVNEEKLPFLAKKDNPHSKKLLSNLLKEKQLPCIKGDNSSKITSATKSMLQNARTLVQSEHNILDRCLKRLS	binds
OMS1 (protein, UniProt Q06668 40-471) NSSHIDDDKSKKKLKNVFQMNSNRVIRKQKTKEELAKERFEEQLRSPNRFVRWGAIARSEKFSKGMTKYMIGAYVIFLIYGLFFTKKLFAKDKELERLLKKQEEGNANEYEALRIKELKGKLRRRDELKLEEYKKMQEEGIENFDDIRVQNFDQNKLNEQILPARDTTNFYQEKANEYDKAINMEERVIFLGKRRKWLMKHCQGDVLEVSCGTGRNIKYLDMSRINSITFLDSSENMMEITHKKFREKFPKYKKVAFVVGKAENLVDLAEKGKPSLENEKENQVKYDTIVEAFGLCSHEDPVKALNNFGKLLKPDGRIILLEHGRGQYDFINKILDNRAERRLNTWGCRWNLDLGEVLDDSDLELVEEKRTHLGTTWCIVAKRKGDVKKKDELGFVEKYLQSSIRKRMESFEKKDDMASKKELEPVPPVSKS	binds

Continued, values first:

binding	Binder
binds	NNT1 (protein, UniProt Q05874 1-261) MSDIESLGEAAGLFEEPEDFLPPPPKPHFAEYQRSHITKESKSDVKDIKLRLVGTSPLWGHLLWNAGIYTANHLDSHPELIKGKTVLELGAAAALPSVICALNGAQMVVSTDYPDPDLMQNIDYNIKSNVPEDFNNVSTEGYIWGNDYSPLLAHIEKIGNNNGKFDLIILSDLVFNHTEHHKLLQTTKDLLAEKGQALVVFSPHRPKLLEKDLEFFELAKNEFHLVPQLIEMVNWKPMFDEDEETIEVRSRVYAYYLTHEK
binds	BIK1 (protein, UniProt P11709 1-440) MDRYQRKIGCFIQIPNLGRGQLKYVGPVDTKAGMFAGVDLLANIGKNDGSFMGKKYFQTEYPQSGLFIQLQKVASLIEKASISQTSRRTTMEPLSIPKNRSIVRLTNQFSPMDDPKSPTPMRSFRITSRHSGNQQSMDQEASDHHQQQEFGYDNREDRMEVDSILSSDRKANHNTTSDWKPDNGHMNDLNSSEVTIELREAQLTIEKLQRKQLHYKRLLDDQRMVLEEVQPTFDRYEATIQEREKEIDHLKQQLELERRQQAKQKQFFDAENEQLLAVVSQLHEEIKENEERNLSHNQPTGANEDVELLKKQLEQLRNIEDQFELHKTKWAKEREQLKMHNDSLSKEYQNLSKELFLTKPQDSSSEEVASLTKKLEEANEKIKQLEQAQAQTAVESLPIFDPPAPVDTTAGRQQWCEHCDTMGHNTAECPHHNPDNQQFF
binds	HMT1 (protein, UniProt P38074 1-348) MSKTAVKDSATEKTKLSESEQHYFNSYDHYGIHEEMLQDTVRTLSYRNAIIQNKDLFKDKIVLDVGCGTGILSMFAAKHGAKHVIGVDMSSIIEMAKELVELNGFSDKITLLRGKLEDVHLPFPKVDIIISEWMGYFLLYESMMDTVLYARDHYLVEGGLIFPDKCSIHLAGLEDSQYKDEKLNYWQDVYGFDYSPFVPLVLHEPIVDTVERNNVNTTSDKLIEFDLNTVKISDLAFKSNFKLTAKRQDMINGIVTWFDIVFPAPKGKRPVEFSTGPHAPYTHWKQTIFYFPDDLDAETGDTIEGELVCSPNEKNNRDLNIKISYKFESNGIDGNSRSRKNEGSYLMH
binds	RKM1 (protein, UniProt Q08961 1-583) MSSDALKALLQWGASFGVIVPEELKFLYTDLKGIICVCEKDIDNPSIKIPPEIVISRNLPMKFFGLSESTKNINGWLKLFFAKIKFDRDNDTIVDNVRVNDKFKPYLDALPSRLNSPLVWNPSELKRLSSTNIGNSIHEKFEGIFKEWFELVSSSDMFDLERVADDVQTFHNLDELTYEALYEKILKITELQRPTIWYSFPAFLWSHLIFISRAFPEYVLNRNCPDNSIVLLPIVDLLNHDYRSKVKWYPENGWFCYEKIGTASQSRELSNNYGGKGNEELLSGYGFVLEDNIFDSVALKVKLPLDVVSTILETEPSLKLPLLSDYTTYAFENKDCVQQEKKATRSATDYINGVTYFINIQNEQCLEPLLDLFTYLSKAEEEDLHDLRARLQGIQMLRNALQSKLNSITGPPATDDSYAIDPYRVYCADVYTKGQKQILKEALTRLKKLEKTMLSENKHQLLTMSKILKNDPAFAETELPSLFSNEDGEEVIFESTYDLLILWILLKTKKNSYPTKYEWVGQQYTNFKQTAYISDDAKAFHTAYFEKQDDVDLAEVDHAIQFVVDNSFTRTSSTTEETILVRK
binds	HSL7 (protein, UniProt P38274 1-827) MHSNVFVGVKPGFNHKQHSKKSRFLENVSSHSPELPSNYDYVLLPITTPRYKEIVGQVFKDFQRQSIQNWKPLQIPEPQLQDICIPPFNVKKLDNDDTPSYIGLLSSWLELESRDPNVRDLGLKVLLNECKYARFVGINKLILAPPRDLSNLQLYGQMIYRLLQNRIVFAAPALTISISLPLYEDSDPLATWELWNTVRKQCEYHPSLTISLALPRTRTPSYVLNRWLAEPVSCLLVSSSIFASNQYDYPVLHKFNQNLILKFQKVNGDSQILGNELCVILHGMEKYANNVKGGESAYLEYINYLLKKGDKVLNSNSNHQFLLQEDSRIMPPLKPHSDNLLNSTYLTFEKDLVKYDLYESAILEALQDLAPRASAKRPLVILVAGAGRGPLVDRTFKIISMLFMDSKVSIIAIEKNPQAYLYLQKRNFDCWDNRVKLIKEDMTKWQINEPSEKRIQIDLCISELLGSFGCNELSPECLWSIEKYHSHNDTIFIPRSYSSYIAPISSPLFYQKLSQTNRSLEAPWIVHRVPYCILSSRVNEVWRFEHPMAQKDTVQDEDDFTVEFSQSSLNEFKIKHRGEIHGFIGFFSANLYNNIFLSTLPNDSTVRLKFSEETLMNTRREENLIKKCDHTPNMTSWSPIIFPLKQPISFIDDSELSVLMSRIHSDTEQKVWYEWSLESFIYLMLSNYTSAVTAASMTIPRSIVTDDTKTLAHNRHYSATTNQKLDNQIDLDQDIENEEEQGFLSNLETGWQSVQDIHGLSETAKPDHLDSINKPMFDLKSTKALEPSNELPRHEDLEEDVPEVHVRVKTSVSTLHNVCGRAFSLPL
binds	RMT2 (protein, UniProt Q03305 1-412) MSELHALLTFPERPISQSYYVPKLQHFLKSGIPATYTLEQVAAFEHEEKNRNGDKEFRESTDDNKTSNTTPLHVLARSLPLDIKDEELQVVMDMMNILFEYGAGWNFIDYEDKTVGDLFLERNQSRESPLYRRLVEAGVSAELLLRKLNGGDVEFLDTDELIGIEPEESVQTAVDGQKEESVGSDDDATAANQQVYLKTELEYKDDALITKENKDGVMMDWETKIMELASETLFPDPEATNSATILNIGFGMGIIDTFIQARKPYRHYICEAHPDVLAKMKMDGWYEKDNVVILEGRWQDTLNNLLDKGEVFFDGIYYDTFSEHYQDILDLYDVVVGLIKPEGVFSFFNGLGADRSLCYDVYKEIVEIDVATYGMKCDYTRYSLDEQLPDWNDVKRSYFNCNYYYHPRITFA
binds	RKM4 (protein, UniProt Q12504 1-494) MDDFSRDTENFVCWLKTTAEIEVSPKIEIKDLCCDNQGRAVVATQKIKKDETLFKIPRSSVLSVTTSQLIKDYPSLKDKFLNETGSWEGLIICILYEMEVLQERSRWAPYFKVWNKPSDMNALIFWDDNELQLLKPSLVLERIGKKEAKEMHERIIKSIKQIGGEFSRVATSFEFDNFAYIASIILSYSFDLEMQDSSVNENEEEETSEEELENERYLKSMIPLADMLNADTSKCNANLTYDSNCLKMVALRDIEKNEQVYNIYGEHPNSELLRRYGYVEWDGSKYDFGEVLLENIVEALKETFETNTEFLDRCIDILRNNANIQEFLEGEEIVLDSYDCYNNGELLPQLILLVQILTILCQIPGLCKLDIKAMERQVERIVKKCLQLIEGARATTNCSATWKRCIMKRLADYPIKKCVSIEKPSKGNSLTREELRDVMARRVLKSEIDSLQVCEETIDKNYKVIPDEKLLTNILKRKLTEEEKSSVKRPCVKK
